From article PMC8670706

Target: T1, Myc-tagged SmHDAC8 (S. mansoni) (UniProt A5H660)
T1 sequence: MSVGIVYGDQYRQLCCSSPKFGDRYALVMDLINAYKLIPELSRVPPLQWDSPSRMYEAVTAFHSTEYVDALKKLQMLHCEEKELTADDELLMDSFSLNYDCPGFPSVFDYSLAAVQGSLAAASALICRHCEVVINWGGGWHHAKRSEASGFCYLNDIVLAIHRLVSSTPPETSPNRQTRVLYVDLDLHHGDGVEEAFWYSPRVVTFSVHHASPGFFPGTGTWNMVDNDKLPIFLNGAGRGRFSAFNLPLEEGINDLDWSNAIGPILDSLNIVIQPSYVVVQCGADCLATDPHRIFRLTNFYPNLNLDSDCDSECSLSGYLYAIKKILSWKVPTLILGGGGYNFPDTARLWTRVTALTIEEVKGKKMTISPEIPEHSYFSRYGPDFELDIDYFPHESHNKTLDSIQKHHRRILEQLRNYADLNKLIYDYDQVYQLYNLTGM
Assay: co-IP; Myc- and HA-tagged proteins co-expressed from cRNA in X. laevis oocytes; lysis in 50 mM HEPES pH 7.4, 500 mM NaCl, 0.05% SDS, 0.5% Triton X100, 5 mM MgCl2; IP with anti-Myc or anti-HA, protein A-Sepharose, 4°C; Western blot

Substance	binding
HA-tagged SmRho1.1 1-88 aa fragment (S. mansoni) (domain or fragment)	no binding
HA-tagged SmRho1.1 1-143 aa fragment (S. mansoni) (domain or fragment)	no binding
HA-tagged SmRho1.1 (S. mansoni)	binds
HA-tagged SmRho1.1 E33K (S. mansoni)	binds
HA-tagged SmRho1.2 (S. mansoni)	no binding
HA-tagged SmRho1.2 K33E (S. mansoni)	no binding

No constants are given. Whether binding was seen depends on the method and setting. In cells and extracts the contact can be indirect. Binding calls can cover weak binding; strength is not graded here. Tags and fused reporters may be left off the sequences shown.
